Test: Aldehyde (4-HNE) reactivity by HRMS
Conditions: 180 min, 37 °C, [M–H]-; for HRMS intensity of unreacted compound: with 4-HNE
Text: Edaravone (1) is a reactive molecule known to form adducts with different aromatic aldehydes, such as formylpterin and vanillin [15, 19]. In aqueous solution, it forms mono- and bis-adducts with the aldehyde compound vanillin [20]. […] Here we have compared the reactivity of compounds 1–5 using another aldehyde with a major biological relevance, 4-hydroxynonenal. 4-HNE is a product of lipid peroxidation implicated in the pathogenesis of diverse human diseases, such as diabetes, aging-related diseases and cancers. […] Edaravone is known to react covalently with 4-HNE to form mono-, bis-, and tris-adducts in solution [25]. We used high-resolution mass spectrometry (HRMS) to monitor the formation of the covalent adducts generated with the phenyl-pyrazolones and 4-HNE after 3 h of incubation at physiological temperature in an aqueous buffer. The formation of mono-, bis-, and tris-adducts was detected unambiguously with each compound (Figure 8). A reaction scheme is represented in Figure 9 for compound 5. In each case, the pyrazolone compound (nucleophile) easily reacted with 4-HNE to generate the different species, each characterized by their corresponding mass (m/z), the ring-double-bond value (rdb, valence values of elements in structure), the signal intensity and the correspondence with the theoretical m/z value (Δppm) (Table 3). The different species can be easily identified, with the isotopic pattern characteristic for the presence of chlorine and carbon atoms (chlorine and carbon cluster isotopes). In all cases, the species formed were identified without any ambiguity from their relative abundances. […] These values were in accordance with the theorical abundances, calculated from the exactive software for the isotopic pattern of the ions from m/z = 489.13606 to m/z = 494.13323.
High resolution mass spectrometry (HRMS) and spectra were recorded with an Exactive Plus mass spectrometer (Thermo Fisher Scientific, San Jose, CA, USA) equipped with a heated electrospray ionisation probe (HESI -II). Each mass analyzer was calibrated with Pierce®ESI positive and negative ion calibration solutions each week (Thermo Fisher Scientific). Optimization of voltages, gas values, and temperatures applied for ion transfer and ionization was performed in negative mode. The tuning parameters were optimized separately with reaction mixture obtained from reaction of nucleophile with the aldehyde. This was completed by infusing first individual solutions of each nucleophile or the aldehyde at 10 pmol/µL. Each reaction mixture was performed during 180 min at 37 °C with the compound at 0.5 mM in phosphate buffer 10 mM, pH = 7.4 and then the reaction mixture was diluted 1/400 in MeOH. The solution was injected with a syringe at a flow rate of 10 µL/min. MS parameters were: sheath gas flow rate 45; auxiliary gas flow rate 10 arbitrary units (nitrogen was used as auxiliary and sheath gas); spray voltage −3.50 kV; capillary temperature 320 °C; auxiliary gas heater temperature 320 °C and S-lens RF level 50. The ions between m/z 150–1500 were scanned in high-resolution mode of the instrument. The identification of the reaction products was performed by HRMS data as elementary analysis parameters (m/z values, relative abundances of isotopic pattern, Ring Double Bond values and mass accuracies lower than 5 ppm).

Compound | HRMS intensity of bis-adduct with 4-HNE | HRMS intensity of mono-adduct with 4-HNE | HRMS intensity of tris-adduct with 4-HNE | HRMS intensity of unreacted compound
COc1ccccc1C1=NN(c2ccc(Cl)cc2Cl)C(=O)C1 [Compound 3, 1-(2,4-Dichlorophenyl)-3-(2-methoxyphenyl)-1H-pyrazol-5(4H)-one] | 1.56 × 10^6 | 3.23 × 10^6 | 2.53 × 10^5 | 3.84 × 10^6
CC1=NN(c2ccccc2)C(=O)C1 [Compound 1, edaravone, reference compound] | 6.60 × 10^5 | 4.88 × 10^5 | 8.37 × 10^4 | 3.98 × 10^6
CCC1=NN(c2ccc(Cl)cc2Cl)C(=O)C1 [Compound 4, 1-(2,4-dichlorophenyl)-3-ethyl-1H-pyrazol-5(4H)-one] | 2.05 × 10^6 | 9.70 × 10^5 | 3.76 × 10^5 | 3.45 × 10^6
Oc1cc(-c2ccccc2F)nn1-c1ccc(Cl)cc1Cl [Compound 5, 1-(2,4-Dichlorophenyl)-3-(2-fluorophenyl)-1H-pyrazol-5-ol] | 1.43 × 10^6 | 1.98 × 10^6 | 3.51 × 10^5 | 3.92 × 10^6
